The record followed here is PMC5569033.

For at least one entry, the source does not settle the construct or the ends of the probe. At least one verdict was read from the data and is not stated in words by the source.

The test system of one data set is thrombin. Kind of data set: Spinach aptamer fluorescence (bulk and droplets). Conditions: DFHBI or DFHBI-1T 2 uM, 5 mM Mg2+, 125 mM K+; Panel: 10 uM RNA, 50 mM Tris-HCl pH 7.5, 125 mM KCl, 5 mM MgCl2, 2 uM DFHBI or DFHBI-1T, folded at 37 C; streptavidin curve: 100 mM Tris pH 7.5, 200 mM KCl, 10 mM NaCl; commercial protein; label: DFHBI or DFHBI-1T dye (non-covalent); letters put together from the description.

In data set [1] the target is streptavidin (Streptomyces avidinii) (UniProt P22629). Nature of the data set: Spinach aptamer fluorescence (bulk, droplets; standard curve linear 1-40 mg/l). Conditions: DFHBI-1T, Mg2+, K+; Panel: 10 uM RNA, 50 mM Tris-HCl pH 7.5, 125 mM KCl, 5 mM MgCl2, 2 uM DFHBI or DFHBI-1T, folded at 37 C; streptavidin curve: 100 mM Tris pH 7.5, 200 mM KCl, 10 mM NaCl; commercial protein; label: DFHBI-1T dye (non-covalent); letters put together from the description.

For “GAUGUAACUGAAUGAAAUGGUGAAGGACGGGUCCAGGAACAAAGCUGAAGUACUUACCUUGUUGAGUAGAGUGUGAGCUCCGUAACUAGUUACAUC [Spinach-thrombin aptamer sensor]”, the binding result in the data set on thrombin is “binds”.
With “GAUGUAACUGAAUGAAAUGGUGAAGGACGGGUCCACGACCGACCAGAAUCAUGCAAGUGCGUAAGAUAGUCGCGGGCCGGGGUUGUUGAGUAGAGUGUGAGCUCCGUAACUAGUUACAUC [Spinach2-Streptavidin (SA) aptamer sensor]”, the binding result in data set [1] is “binds”.
